Measured values taken from the supplement of paper PMC10849652.
This is one part of the list.

Protein sequences, listed by entry. Tags and fused reporters are not part of them. Lines headed by an entry give the natural chain unless they say otherwise; changes in a name come on top.
UniProt Q9UKU7: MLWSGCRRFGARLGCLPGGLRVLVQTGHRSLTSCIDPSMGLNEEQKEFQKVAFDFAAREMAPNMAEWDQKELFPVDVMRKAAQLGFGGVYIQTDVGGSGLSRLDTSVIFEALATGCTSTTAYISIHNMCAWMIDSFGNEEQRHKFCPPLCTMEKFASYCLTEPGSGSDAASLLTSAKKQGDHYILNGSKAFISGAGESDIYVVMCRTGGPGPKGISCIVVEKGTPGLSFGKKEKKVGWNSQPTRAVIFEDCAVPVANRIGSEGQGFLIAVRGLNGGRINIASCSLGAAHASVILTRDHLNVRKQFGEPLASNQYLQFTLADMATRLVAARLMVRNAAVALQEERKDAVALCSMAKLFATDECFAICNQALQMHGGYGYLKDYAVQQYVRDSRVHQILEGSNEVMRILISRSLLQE
UniProt P33527: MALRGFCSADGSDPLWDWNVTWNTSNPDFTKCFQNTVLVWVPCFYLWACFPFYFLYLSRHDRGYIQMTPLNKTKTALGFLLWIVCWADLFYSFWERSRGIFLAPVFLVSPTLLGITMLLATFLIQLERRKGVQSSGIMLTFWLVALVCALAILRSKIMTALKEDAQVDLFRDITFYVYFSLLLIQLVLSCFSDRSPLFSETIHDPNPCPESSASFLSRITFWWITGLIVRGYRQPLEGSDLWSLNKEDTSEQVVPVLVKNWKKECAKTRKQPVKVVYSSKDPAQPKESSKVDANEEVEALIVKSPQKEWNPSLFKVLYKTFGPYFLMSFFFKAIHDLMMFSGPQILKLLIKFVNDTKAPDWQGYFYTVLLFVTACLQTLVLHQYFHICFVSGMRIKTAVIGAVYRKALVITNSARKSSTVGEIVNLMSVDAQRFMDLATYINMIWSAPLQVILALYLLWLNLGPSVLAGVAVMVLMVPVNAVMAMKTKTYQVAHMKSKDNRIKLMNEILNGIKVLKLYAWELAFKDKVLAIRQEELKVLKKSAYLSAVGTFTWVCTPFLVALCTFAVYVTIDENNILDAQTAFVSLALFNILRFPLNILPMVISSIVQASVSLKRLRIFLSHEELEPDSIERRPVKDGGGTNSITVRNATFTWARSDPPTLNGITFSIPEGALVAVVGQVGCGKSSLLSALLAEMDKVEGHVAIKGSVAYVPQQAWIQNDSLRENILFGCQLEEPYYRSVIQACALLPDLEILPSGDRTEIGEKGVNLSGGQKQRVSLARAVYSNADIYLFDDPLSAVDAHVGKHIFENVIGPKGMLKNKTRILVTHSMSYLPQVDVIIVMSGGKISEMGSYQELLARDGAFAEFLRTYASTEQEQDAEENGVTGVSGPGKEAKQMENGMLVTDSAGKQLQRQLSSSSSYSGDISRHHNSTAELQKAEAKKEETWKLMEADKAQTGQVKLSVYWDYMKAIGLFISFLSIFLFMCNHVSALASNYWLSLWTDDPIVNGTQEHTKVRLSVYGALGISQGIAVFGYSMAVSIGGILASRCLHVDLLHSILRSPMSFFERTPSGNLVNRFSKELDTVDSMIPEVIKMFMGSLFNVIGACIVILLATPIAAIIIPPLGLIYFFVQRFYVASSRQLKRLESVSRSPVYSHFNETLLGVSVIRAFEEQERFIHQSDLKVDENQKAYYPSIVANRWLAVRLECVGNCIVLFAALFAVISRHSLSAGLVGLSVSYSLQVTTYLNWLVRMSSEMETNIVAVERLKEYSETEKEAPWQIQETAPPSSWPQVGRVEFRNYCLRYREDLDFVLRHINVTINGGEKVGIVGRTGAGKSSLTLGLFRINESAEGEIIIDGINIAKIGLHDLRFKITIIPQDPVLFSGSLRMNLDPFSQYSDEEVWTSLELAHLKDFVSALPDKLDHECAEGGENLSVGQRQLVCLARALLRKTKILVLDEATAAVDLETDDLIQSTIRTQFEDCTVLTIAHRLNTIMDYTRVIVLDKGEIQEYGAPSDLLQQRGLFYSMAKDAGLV
UniProt Q8IZP0: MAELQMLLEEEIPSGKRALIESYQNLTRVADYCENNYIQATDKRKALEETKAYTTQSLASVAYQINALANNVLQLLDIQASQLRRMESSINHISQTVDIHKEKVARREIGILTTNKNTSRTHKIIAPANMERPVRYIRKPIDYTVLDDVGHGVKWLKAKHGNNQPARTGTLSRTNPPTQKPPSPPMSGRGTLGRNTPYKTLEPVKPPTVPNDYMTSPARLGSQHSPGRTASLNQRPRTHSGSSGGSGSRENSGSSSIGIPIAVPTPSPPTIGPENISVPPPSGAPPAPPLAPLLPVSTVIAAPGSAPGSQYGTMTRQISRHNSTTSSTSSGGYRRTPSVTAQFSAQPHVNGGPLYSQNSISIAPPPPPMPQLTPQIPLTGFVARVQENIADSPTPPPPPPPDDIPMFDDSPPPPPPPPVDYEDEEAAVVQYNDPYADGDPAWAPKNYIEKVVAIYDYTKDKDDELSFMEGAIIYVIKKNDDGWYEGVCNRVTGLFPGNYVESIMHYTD
UniProt Q99758: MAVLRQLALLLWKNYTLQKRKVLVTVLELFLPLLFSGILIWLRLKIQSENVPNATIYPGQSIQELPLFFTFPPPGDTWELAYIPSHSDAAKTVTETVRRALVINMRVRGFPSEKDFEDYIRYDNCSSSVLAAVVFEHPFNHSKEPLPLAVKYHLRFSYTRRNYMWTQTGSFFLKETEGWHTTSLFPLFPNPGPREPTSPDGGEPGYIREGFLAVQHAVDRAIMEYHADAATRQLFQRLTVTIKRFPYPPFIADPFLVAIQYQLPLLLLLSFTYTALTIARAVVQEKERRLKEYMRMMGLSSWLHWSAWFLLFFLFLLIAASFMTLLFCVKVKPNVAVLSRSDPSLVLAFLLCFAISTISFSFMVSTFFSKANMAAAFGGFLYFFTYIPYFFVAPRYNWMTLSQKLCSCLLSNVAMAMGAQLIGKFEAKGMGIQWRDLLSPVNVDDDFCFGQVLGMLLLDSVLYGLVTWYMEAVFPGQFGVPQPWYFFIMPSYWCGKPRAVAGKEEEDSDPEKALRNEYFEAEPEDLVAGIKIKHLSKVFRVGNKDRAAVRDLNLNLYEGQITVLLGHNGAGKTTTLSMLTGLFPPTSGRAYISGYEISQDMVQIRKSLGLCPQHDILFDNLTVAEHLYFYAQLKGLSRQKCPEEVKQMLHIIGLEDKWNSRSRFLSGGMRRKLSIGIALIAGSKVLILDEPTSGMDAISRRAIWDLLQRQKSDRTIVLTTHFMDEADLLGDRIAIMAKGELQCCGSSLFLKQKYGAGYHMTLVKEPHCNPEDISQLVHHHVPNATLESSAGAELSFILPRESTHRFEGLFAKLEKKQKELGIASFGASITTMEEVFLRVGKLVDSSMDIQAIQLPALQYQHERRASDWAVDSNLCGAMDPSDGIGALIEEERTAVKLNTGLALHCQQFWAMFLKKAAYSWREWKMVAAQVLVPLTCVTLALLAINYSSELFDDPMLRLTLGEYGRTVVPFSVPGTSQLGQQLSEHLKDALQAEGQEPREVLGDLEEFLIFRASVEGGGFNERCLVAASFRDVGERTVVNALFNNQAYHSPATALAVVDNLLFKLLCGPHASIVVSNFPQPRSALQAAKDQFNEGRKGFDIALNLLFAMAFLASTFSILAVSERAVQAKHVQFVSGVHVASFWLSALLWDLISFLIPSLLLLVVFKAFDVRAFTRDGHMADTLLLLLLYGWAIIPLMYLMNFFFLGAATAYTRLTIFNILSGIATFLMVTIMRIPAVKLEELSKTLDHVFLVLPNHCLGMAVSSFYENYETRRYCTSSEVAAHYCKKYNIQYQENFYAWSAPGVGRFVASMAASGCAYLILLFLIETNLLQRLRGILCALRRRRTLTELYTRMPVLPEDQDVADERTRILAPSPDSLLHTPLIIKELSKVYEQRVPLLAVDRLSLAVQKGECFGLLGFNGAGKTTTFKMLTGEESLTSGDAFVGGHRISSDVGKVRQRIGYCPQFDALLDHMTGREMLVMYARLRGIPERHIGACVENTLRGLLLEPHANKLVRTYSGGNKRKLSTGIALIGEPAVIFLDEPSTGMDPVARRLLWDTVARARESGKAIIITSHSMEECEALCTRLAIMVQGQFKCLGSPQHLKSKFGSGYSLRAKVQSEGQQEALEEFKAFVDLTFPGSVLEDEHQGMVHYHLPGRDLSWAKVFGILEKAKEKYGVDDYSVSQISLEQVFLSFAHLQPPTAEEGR
UniProt Q8WTS1: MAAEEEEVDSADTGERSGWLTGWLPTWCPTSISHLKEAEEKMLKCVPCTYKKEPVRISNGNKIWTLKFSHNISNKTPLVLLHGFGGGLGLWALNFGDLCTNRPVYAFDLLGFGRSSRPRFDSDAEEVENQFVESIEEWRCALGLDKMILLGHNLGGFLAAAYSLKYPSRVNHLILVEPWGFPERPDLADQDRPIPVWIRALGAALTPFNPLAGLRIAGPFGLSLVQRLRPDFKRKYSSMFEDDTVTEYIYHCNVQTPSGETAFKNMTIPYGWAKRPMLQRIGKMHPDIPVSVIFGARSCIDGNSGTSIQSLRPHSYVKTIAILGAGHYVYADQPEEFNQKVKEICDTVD
UniProt Q96QU6: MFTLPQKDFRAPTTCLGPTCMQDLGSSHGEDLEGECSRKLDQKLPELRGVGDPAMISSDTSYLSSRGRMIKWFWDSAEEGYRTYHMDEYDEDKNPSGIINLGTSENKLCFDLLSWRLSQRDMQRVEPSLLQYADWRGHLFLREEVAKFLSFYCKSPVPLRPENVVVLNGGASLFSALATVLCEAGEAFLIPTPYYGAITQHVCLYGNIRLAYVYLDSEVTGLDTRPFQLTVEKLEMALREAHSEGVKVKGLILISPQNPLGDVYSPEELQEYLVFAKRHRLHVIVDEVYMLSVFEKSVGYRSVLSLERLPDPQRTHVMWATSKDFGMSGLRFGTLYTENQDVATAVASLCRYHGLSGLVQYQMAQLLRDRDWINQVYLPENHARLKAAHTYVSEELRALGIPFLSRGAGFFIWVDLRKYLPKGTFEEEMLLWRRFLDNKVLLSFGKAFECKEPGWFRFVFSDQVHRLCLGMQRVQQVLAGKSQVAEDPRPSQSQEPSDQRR
UniProt Q9NUJ1: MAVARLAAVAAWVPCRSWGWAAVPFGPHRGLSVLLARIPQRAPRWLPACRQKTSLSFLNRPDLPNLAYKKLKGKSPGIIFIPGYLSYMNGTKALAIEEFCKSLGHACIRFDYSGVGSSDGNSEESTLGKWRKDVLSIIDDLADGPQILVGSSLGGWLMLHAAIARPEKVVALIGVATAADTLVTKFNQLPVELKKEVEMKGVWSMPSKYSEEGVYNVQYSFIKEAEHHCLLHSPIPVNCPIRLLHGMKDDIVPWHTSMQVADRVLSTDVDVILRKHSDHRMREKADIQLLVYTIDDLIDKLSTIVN
UniProt P08183, whole entry, looked up: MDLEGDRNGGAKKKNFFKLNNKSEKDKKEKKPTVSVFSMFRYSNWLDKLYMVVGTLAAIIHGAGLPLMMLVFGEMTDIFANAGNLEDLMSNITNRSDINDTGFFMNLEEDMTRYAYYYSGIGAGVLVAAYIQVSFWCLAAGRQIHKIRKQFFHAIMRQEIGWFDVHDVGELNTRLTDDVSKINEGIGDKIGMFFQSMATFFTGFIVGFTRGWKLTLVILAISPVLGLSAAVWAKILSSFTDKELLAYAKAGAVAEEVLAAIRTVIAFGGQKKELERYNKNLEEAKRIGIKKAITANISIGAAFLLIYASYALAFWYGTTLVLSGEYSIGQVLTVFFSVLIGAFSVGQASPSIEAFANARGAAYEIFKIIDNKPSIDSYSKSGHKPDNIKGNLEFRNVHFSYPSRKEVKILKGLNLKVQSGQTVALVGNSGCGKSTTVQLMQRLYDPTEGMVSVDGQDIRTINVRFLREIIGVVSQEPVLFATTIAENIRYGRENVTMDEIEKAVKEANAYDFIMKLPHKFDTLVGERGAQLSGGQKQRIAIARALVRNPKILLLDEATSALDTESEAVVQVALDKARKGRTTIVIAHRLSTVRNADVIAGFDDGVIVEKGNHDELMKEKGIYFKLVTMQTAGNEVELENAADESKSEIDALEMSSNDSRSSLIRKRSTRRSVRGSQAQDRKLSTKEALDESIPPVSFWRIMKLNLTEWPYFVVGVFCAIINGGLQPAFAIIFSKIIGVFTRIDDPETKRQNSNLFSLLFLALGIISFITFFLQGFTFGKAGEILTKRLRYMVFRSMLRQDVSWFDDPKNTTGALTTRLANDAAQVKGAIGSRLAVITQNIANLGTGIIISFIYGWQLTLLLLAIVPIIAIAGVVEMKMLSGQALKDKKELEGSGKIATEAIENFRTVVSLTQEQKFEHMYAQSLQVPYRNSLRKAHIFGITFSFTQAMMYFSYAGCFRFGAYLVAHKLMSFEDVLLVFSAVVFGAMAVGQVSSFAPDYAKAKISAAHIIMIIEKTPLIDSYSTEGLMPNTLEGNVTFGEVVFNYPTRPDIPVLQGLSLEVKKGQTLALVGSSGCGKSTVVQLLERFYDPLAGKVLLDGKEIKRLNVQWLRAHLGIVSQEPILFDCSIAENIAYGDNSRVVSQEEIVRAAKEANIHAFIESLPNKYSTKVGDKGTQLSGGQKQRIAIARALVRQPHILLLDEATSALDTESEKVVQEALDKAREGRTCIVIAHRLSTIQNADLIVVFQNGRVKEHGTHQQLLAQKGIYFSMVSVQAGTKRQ

Experiments:
Assay in all cases: log2 fold change, soluble protein after heating vs DMSO (PISA); higher = thermal stabilisation; K562 cells, 10 uM, 30 min; active = over 0.2 and 3.5 SD of the protein, either way, in both replicates (recomputed)
[1] = compound: C1=CC=C(C=C1)[C@H](COC2=CC3=C(C=C2)NC(=O)N3)NC(=O)C4=CC=CN(C4=O)CC5=CC(=C(C=C5)F)F
Summary of the method: (§1)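 K562 cells at 2×10^6 cells/mL were given 10 μM compound for 30 min. Aliquots then went through 3 min of heating across 48°C-58°C, were pooled, and were extracted in PBS with 0.5% NP-40 at 4°C, and the supernatant after 21,000xg for 90 min was quantified by TMTpro 16plex LC-MS/MS with channel sums equalised. Thermal stability relative to control samples, from duplicates, is given as log2 fold change.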

[2] = compound: CC1=C(SC2=C1C(=N[C@H](C3=NN=C(N32)C)CC(=O)N)C4=CC=C(C=C4)Cl)C
Summary of the method: as §1

[3] = compound: CC1=C2C(=CC=C1)N=C(N(C2=O)C3=CC=CC=C3C)CN4C=NC5=C(N=CN=C54)N
Summary of the method: as §1

[4] = compound: Cc1sc2c(c1C)C(c1ccc(Cl)cc1)=N[C@@H](CC(=O)OC(C)(C)C)c1nnc(C)n1-2
Summary of the method: as §1

[5] = compound: c1ccc([C@@H]2C[C@H]2NC2CCNCC2)cc1
Summary of the method: as §1

Measured: log2 fold change

ACTN4 (UniProt O43707)
inactive: [1] 0.054 | [2] 0.016 | [3] 0.008 | [4] -0.013 | [5] 0.006

AAK1, A0A096LP25
inactive: [1] -0.056 | [2] -0.041 | [3] -0.046 | [4] -0.024 | [5] 0.072

ACAA2 (UniProt P42765)
inactive: [1] 0.035 | [2] 0.027 | [3] 0.021 | [4] -0.03 | [5] -0.006

ACOT13 (UniProt Q9NPJ3)
inactive: [1] 0.05 | [2] 0.047 | [3] 0.01 | [4] -0.014 | [5] 0.04

ADAL (UniProt Q6DHV7)
inactive: [1] -0.012 | [2] 0.058 | [3] 0.03 | [4] -0.009 | [5] -0.008

ACTR2 (UniProt P61160)
inactive: [1] 0.022 | [2] 0.019 | [3] 0.026 | [4] -0.012 | [5] -0.01

ACAD8 (UniProt Q9UKU7)
inactive: [1] -0.015 | [2] 0.046 | [3] 0.036 | [4] -0.045 | [5] -0.005

ADAM9 (UniProt Q13443)
inactive: [1] 0.004 | [2] 0.023 | [3] -0.019 | [4] 0.033 | [5] 0.075

ACSM3 (UniProt Q53FZ2)
inactive: [1] -0.046 | [2] -0.051 | [3] 0.091 | [4] -0.03 | [5] -0.029

ACADVL isoform 3 (UniProt P49748)
inactive: [1] 0.019 | [2] 0.05 | [3] 0.009 | [4] -0.011 | [5] -0.018

ACOX1 isoform 2 (UniProt Q15067)
inactive: [1] -0.002 | [2] 0.011 | [3] -0.001 | [4] -0.052 | [5] 0.014

ABCC1 (UniProt P33527)
inactive: [1] 0.008 | [2] 0.029 | [3] 0.035 | [4] 0.018 | [5] 0.005

AARSD1 isoform 3 (UniProt Q9BTE6)
inactive: [1] -0.053 | [2] -0.068 | [3] 0.039 | [4] 0.047 | [5] 0.023

ADAM10 (UniProt O14672)
inactive: [1] -0.001 | [2] 0.031 | [3] 0.03 | [4] 0.021 | [5] -0.031

ABI1 (UniProt Q8IZP0)
inactive: [1] -0.059 | [2] 0.1 | [3] 0.11 | [4] -0.107 | [5] -0.024

ACSL5 isoform 3 (UniProt Q9ULC5)
inactive: [1] -0.024 | [2] 0.043 | [3] 0.101 | [4] 0.057 | [5] -0.178

ABCC5 (UniProt O15440)
inactive: [1] -0.034 | [2] 0.082 | [3] -0.02 | [4] -0.001 | [5] -0.025

ACACA isoform 4 (UniProt Q13085)
inactive: [1] -0.053 | [2] -0.031 | [3] 0.014 | [4] 0.088 | [5] 0.014

ADAMTS5 (UniProt Q9UNA0)
inactive: [1] 0.149 | [2] 0.106 | [3] 0.152 | [4] -0.076 | [5] -0.028

ABCA3 (UniProt Q99758)
inactive: [1] 0.239 | [2] 0.002 | [3] -0.05 | [4] 0.02 | [5] -0.035

ACOT9 isoform 4 (UniProt Q9Y305)
inactive: [1] 0.047 | [2] -0.03 | [3] -0.068 | [4] 0.117 | [5] -0.086

ABHD5 (UniProt Q8WTS1)
inactive: [1] -0.041 | [2] 0.018 | [4] 0.076 | [5] 0.102

ACCS (UniProt Q96QU6)
inactive: [1] -0.469 | [2] 0.024 | [4] 0.08 | [5] 0.006

ABHD6 (UniProt Q9BV23)
inactive: [4] 0.377

ABCC4 (UniProt O15439)
inactive: [1] -0.012 | [2] 0.064 | [3] 0.051 | [4] -0.026 | [5] 0.026

ACBD5 (UniProt Q5T8D3)
inactive: [2] 0.018 | [3] 0.011 | [4] -0.075 | [5] -0.028

ACLY isoform 2 (UniProt P53396)
inactive: [1] -0.009 | [3] -0.066 | [4] 0.043

ACTR3B (UniProt Q9P1U1)
inactive: [3] -0.002 | [4] 0.173

ABHD10 (UniProt Q9NUJ1)
inactive: [1] -0.01 | [2] -0.04 | [3] 0.001 | [4] -0.007 | [5] 0.033

ABCB1 (UniProt P08183)
inactive: [2] 0.088 | [4] 0.04 | [5] -0.071

ACP1 isoform 2 (UniProt P24666)
inactive: [1] -0.107 | [2] -0.028 | [3] 0.004 | [4] 0.028 | [5] 0.022

ACO2 (UniProt Q99798)
inactive: [1] 0 | [2] 0.067 | [3] 0.044 | [4] -0.023 | [5] -0.046

Two successive records out of the list so far:
ACTR3B (UniProt Q9P1U1)
inactive: [3] -0.002 | [4] 0.173

ABHD10 (UniProt Q9NUJ1)
inactive: [1] -0.01 | [2] -0.04 | [3] 0.001 | [4] -0.007 | [5] 0.033

(continued)

ACYP2 (UniProt P14621)
inactive: [2] 0.412 | [3] 0.121 | [4] -0.028 | [5] -0.109

ABCA4 (UniProt P78363)
inactive: [1] 0.174 | [2] 0.297 | [4] 0.03 | [5] -0.128

ACOX1 isoform 3 (UniProt Q15067)
inactive: [3] 0.579 | [4] 0.297
